The source of these data is article doi:10.1101/2020.04.10.035014 (bioRxiv, 2020).

The chains behind the UniProt entries cited, without tags or fusion partners. Where a name states a change or a piece, a line headed by the entry shows the natural chain unless it says otherwise. Residues count along the entry.
UniProt Q68E01, whole entry: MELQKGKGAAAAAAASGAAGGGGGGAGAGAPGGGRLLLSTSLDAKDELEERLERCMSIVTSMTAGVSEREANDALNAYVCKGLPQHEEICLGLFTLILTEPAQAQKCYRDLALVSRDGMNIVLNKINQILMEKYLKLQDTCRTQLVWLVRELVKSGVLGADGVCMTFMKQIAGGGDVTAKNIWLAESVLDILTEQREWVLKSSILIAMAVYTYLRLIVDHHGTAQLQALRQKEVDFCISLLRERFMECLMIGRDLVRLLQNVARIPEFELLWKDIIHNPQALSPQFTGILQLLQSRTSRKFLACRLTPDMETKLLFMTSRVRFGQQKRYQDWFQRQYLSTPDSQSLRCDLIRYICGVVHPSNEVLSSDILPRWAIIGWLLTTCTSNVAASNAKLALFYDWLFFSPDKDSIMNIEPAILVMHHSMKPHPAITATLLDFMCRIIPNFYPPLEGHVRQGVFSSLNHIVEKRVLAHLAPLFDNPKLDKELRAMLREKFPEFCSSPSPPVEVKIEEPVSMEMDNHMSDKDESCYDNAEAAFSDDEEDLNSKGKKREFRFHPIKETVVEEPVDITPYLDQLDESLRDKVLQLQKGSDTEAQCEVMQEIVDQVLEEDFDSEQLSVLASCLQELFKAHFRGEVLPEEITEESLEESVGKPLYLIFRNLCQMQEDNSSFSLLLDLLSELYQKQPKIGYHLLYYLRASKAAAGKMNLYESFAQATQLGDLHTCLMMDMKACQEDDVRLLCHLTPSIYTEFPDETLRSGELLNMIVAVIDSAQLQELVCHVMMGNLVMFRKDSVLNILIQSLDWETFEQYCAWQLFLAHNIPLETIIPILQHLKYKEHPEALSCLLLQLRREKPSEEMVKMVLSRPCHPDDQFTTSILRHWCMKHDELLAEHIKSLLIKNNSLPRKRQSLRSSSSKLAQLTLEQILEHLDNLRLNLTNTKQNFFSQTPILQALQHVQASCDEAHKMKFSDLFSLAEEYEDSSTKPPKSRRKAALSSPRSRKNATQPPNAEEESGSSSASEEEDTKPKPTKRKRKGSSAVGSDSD
UniProt Q68E01, 1-500: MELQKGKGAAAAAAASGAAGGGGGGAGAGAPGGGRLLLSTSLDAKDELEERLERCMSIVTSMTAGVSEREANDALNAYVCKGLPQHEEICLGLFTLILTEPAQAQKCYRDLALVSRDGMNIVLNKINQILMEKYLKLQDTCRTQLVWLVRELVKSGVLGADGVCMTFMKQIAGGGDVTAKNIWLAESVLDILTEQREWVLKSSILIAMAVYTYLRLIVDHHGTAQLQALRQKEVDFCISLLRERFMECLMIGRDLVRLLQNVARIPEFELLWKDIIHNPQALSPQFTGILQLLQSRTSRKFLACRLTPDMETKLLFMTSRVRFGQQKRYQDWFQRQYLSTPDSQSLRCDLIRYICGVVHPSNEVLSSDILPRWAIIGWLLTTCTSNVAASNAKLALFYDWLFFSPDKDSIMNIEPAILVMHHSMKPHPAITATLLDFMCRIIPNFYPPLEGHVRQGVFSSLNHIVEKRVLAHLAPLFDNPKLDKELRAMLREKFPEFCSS

These are yes or no findings as the source states them, for the method shown. For some of these results: Binding seen in cells or lysates may run through a third protein. Some entries that bind do so weakly or less than the wild type.

The target in test [1] is INTS3(1-500) (human) (UniProt Q68E01). Nature of the test: SEC.
For test [2], the target named is C-terminus of INTS3 (INTS3c; residues 560-905 and 915-995, co-expressed) (human) (UniProt Q68E01). Nature of the test: pull-down.
The target of test [3] is SFB-tagged wild-type full length INTS3 (human) (UniProt Q68E01). Nature of the test: co-IP.
The target of test [4] is full length INTS6 F858A/K859A mutant (human) (UniProt Q9UL03). In words: co-IP.
Test [5] has as its target full length wild-type INTS6 of the co-immunoprecipitation of Fig. 2E (human) (UniProt Q9UL03). In words: co-IP.
The target in test [6] is INTS3c F806A/E839A mutant (human) (UniProt Q68E01). Nature of the test: pull-down.
Test [7] deals with INTS3c V767A/D769A mutant (human) (UniProt Q68E01). In words: pull-down.

With “INTS3(1-500) (from UniProt Q68E01 1-500) (domain or fragment)”, the binding result in test [1] is on record as “no binding”.

As to “INTS6c F858A/K859A mutant (from UniProt Q9UL03 800-887) (domain or fragment)”, the binding result in test [2] is reported as “no binding”.

Regarding “Myc-tagged full length INTS6 (from UniProt Q9UL03 1-887)”, the binding entry in test [3] is on record as “binds”.

For “full length INTS3 of the co-immunoprecipitation of Fig. 2E (from UniProt Q68E01 1-1043)”, the binding entry was “binds weakly” in test [4] and “binds” in test [5].

B1: C-terminus of INTS6 (INTS6c; residues 800-887) (domain or fragment, human, UniProt Q9UL03 800-887, looked up)
chain: MHCRSHEEVNTELKAQIMKEIRKPGRKYERIFTLLKHVQGSLQTRLIFLQNVIKEASRFKKRMLIEQLENFLDEIHRRANQINHINSN
B1: the binding entry in test [6] and in test [7] was “no binding” throughout.
